Laboratory results reported in the supplement of paper PMC11732987, “Enantioselective OTUD7B fragment discovery through chemoproteomics screening and high-throughput optimisation” (Communications Chemistry, 2025).
The list shows a part of the results. The data scatter; read single values as rough.

Sequences of proteins named here, by UniProt entry; tags and fusion partners are left off. A change or cut given only in a name is not applied to a line headed by its entry. Residues count along the entry.
UniProt Q9Y5N6: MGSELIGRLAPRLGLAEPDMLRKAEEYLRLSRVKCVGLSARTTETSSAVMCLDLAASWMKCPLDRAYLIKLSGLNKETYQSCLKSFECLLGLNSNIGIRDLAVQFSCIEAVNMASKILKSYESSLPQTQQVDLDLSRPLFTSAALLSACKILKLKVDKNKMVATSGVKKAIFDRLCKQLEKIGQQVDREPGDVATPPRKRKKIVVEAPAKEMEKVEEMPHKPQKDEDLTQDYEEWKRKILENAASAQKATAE
UniProt Q8N1F7, 505-524: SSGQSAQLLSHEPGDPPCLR
UniProt Q9Y530: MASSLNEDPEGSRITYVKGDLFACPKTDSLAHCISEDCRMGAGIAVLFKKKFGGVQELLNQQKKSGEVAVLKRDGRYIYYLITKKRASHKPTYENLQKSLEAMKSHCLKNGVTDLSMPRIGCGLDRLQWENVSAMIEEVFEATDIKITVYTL
UniProt Q12769: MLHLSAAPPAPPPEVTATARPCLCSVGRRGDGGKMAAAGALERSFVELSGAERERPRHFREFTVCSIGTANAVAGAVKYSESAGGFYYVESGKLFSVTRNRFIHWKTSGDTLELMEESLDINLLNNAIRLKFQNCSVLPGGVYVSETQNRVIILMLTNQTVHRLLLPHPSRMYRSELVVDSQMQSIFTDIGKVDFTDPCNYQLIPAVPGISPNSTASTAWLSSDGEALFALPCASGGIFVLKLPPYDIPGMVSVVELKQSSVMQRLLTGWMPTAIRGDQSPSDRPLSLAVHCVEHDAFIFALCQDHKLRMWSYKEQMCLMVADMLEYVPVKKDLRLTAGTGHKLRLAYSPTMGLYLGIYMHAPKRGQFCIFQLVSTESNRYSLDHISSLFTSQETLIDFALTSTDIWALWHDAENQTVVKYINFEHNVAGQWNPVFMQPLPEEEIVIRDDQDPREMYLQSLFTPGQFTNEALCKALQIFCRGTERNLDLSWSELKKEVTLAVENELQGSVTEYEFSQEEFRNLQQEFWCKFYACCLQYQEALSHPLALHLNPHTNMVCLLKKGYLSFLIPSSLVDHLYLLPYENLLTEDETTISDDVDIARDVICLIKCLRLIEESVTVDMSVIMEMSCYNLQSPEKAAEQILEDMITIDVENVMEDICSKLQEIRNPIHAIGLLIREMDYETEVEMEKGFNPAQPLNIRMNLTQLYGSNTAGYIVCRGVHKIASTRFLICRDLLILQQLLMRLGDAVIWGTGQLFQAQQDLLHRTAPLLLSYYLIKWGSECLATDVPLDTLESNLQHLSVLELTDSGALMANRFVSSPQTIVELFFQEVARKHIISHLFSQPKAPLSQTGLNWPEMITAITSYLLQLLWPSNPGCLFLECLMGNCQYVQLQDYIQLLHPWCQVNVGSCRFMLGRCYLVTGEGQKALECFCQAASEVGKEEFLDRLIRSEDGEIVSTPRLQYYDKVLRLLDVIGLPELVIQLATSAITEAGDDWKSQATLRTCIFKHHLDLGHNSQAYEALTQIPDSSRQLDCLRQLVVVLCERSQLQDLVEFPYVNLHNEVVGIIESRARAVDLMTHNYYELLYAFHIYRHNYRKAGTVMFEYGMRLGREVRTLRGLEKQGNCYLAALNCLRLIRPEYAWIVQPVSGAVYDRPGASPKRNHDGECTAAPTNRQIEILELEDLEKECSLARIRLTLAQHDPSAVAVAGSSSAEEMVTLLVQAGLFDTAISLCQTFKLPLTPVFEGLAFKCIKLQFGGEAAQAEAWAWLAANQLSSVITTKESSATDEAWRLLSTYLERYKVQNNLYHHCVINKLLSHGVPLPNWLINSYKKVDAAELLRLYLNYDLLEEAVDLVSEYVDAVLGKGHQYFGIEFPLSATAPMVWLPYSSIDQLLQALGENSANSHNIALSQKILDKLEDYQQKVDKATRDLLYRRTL
UniProt Q6ZVK8, 2-37: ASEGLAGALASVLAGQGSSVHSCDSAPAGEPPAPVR
UniProt Q969T7: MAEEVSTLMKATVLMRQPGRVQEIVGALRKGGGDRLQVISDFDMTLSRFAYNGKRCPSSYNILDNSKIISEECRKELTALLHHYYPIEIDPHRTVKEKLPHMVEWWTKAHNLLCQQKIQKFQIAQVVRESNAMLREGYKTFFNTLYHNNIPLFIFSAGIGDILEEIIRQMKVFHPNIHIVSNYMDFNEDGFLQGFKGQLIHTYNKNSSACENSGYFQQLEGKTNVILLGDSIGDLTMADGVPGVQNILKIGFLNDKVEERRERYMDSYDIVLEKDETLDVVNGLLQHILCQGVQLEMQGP
UniProt Q9H7Z3: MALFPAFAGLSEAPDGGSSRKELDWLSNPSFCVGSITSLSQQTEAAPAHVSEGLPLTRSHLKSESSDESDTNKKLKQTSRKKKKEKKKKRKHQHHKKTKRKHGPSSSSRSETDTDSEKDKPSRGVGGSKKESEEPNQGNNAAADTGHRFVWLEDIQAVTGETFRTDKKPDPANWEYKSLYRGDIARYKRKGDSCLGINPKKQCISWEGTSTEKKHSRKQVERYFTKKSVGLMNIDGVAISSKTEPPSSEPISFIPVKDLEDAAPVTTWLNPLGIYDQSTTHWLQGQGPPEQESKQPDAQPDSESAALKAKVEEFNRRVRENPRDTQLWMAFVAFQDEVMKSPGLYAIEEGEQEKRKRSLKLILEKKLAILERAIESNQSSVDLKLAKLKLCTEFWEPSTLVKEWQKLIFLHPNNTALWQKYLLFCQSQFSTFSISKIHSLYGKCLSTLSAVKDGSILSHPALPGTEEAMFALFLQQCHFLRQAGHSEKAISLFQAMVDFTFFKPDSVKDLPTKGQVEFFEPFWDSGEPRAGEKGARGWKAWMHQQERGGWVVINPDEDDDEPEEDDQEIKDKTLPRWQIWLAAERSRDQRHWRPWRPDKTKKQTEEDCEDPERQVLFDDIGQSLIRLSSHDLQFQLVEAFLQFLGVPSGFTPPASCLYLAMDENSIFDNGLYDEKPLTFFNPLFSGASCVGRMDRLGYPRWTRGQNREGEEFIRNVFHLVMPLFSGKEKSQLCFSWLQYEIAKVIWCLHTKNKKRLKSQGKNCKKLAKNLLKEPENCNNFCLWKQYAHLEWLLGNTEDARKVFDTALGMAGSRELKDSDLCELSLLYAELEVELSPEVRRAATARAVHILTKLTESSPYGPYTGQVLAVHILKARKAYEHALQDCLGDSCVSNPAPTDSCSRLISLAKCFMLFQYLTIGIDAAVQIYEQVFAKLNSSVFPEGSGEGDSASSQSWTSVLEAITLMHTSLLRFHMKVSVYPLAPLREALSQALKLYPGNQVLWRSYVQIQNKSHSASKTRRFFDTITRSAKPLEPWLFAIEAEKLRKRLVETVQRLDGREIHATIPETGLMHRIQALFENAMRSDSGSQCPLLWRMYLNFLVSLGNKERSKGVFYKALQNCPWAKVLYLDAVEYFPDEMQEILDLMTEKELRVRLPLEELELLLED
UniProt Q12980: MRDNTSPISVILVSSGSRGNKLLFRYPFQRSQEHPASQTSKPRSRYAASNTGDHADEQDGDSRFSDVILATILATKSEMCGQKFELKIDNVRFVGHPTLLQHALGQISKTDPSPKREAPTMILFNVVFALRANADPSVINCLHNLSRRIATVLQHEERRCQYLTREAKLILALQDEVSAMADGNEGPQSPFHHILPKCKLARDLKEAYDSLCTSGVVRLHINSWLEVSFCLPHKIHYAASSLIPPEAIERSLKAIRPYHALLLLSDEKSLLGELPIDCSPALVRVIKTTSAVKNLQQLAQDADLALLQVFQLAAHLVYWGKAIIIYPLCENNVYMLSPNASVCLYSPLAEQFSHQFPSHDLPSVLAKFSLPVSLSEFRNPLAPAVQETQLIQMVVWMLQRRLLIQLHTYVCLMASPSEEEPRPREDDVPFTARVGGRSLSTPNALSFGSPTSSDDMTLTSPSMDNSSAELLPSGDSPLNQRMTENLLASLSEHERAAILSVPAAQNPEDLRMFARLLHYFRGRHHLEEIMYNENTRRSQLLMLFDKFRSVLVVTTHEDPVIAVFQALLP
UniProt P52948: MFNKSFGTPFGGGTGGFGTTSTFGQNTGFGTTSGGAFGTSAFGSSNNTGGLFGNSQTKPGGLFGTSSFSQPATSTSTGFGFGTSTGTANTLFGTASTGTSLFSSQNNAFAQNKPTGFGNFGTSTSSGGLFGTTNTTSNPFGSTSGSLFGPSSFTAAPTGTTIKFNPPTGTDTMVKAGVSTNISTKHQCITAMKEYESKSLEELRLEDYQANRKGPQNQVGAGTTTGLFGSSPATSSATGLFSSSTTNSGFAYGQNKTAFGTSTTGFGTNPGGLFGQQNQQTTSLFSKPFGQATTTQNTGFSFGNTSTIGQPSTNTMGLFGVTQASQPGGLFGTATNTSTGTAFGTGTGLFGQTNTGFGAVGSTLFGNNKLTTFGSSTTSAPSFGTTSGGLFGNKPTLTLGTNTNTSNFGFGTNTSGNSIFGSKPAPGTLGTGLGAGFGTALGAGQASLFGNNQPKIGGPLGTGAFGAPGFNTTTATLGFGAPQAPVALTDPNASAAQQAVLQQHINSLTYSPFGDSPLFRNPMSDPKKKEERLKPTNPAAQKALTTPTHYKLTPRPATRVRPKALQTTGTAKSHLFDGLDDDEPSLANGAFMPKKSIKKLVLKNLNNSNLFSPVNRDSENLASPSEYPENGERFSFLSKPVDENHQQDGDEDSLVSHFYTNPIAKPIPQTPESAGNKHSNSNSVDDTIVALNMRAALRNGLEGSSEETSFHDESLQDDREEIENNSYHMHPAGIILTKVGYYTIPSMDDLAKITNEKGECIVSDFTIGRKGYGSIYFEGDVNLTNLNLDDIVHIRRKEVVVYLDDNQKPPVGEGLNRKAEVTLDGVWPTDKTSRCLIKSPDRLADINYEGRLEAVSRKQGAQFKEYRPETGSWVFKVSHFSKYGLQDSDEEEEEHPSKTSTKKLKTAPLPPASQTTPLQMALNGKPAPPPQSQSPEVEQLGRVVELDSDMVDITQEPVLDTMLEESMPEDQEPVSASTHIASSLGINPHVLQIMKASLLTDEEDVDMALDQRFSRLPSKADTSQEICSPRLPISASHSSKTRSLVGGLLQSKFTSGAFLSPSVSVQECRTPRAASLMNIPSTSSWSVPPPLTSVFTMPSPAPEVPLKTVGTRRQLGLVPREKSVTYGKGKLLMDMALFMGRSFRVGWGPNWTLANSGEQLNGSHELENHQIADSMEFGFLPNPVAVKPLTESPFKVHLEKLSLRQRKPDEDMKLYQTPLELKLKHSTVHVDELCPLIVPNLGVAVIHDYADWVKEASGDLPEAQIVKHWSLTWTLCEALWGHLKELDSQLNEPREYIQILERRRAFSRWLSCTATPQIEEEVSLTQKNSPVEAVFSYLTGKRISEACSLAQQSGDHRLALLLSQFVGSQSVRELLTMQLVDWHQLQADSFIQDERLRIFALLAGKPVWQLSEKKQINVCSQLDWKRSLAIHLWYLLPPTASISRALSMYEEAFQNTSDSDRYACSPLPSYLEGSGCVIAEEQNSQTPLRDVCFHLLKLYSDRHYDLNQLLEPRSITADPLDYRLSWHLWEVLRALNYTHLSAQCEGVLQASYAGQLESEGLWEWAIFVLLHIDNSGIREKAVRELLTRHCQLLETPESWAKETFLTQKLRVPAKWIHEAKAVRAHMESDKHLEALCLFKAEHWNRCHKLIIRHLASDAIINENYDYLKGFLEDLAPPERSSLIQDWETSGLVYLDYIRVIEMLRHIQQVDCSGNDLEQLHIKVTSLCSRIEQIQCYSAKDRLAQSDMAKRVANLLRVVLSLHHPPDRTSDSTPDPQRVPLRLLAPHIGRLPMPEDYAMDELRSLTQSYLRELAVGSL
UniProt P53384: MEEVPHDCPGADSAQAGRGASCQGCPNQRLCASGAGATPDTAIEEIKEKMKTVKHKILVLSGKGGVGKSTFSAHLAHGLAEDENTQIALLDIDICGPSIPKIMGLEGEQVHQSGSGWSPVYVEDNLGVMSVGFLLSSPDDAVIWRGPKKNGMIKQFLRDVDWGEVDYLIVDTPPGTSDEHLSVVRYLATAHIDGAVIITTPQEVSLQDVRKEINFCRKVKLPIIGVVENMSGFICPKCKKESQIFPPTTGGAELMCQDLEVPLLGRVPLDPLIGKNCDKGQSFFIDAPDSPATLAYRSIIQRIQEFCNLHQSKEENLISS
UniProt P61970: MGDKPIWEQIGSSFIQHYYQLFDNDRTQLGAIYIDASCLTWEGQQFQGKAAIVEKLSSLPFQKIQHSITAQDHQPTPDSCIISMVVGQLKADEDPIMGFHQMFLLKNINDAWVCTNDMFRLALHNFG
UniProt Q9Y5Y2: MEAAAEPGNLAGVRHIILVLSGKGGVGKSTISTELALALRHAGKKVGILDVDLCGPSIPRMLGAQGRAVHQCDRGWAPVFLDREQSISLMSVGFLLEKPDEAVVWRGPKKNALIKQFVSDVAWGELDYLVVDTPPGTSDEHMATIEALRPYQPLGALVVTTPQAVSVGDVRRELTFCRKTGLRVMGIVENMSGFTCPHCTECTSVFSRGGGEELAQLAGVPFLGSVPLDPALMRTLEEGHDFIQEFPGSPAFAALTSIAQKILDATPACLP

Compound: ClCC(=O)N[C@@H]1CCCc2ccccc12
Assay: log2 mean competition ratio of IA-DTB cysteine labelling (DMSO/compound) (log2 ratio); higher = stronger cysteine engagement by compound
Conditions: 50 µM; treatment time: 4 h; cell line lysate: HEK293T
Experimental: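 IA-DTB competitive cysteine chemoproteomics in HEK293T RIPA lysate. Lysates were treated with compound 29 or 30 at 50 or 200 µM for 4 h, then IA-DTB (500 µM, 1 h), trypsin-digested, NeutrAvidin-enriched and analysed by diaPASEF. Competition ratio = intensity DMSO / intensity compound (n=4 treated, n=64 DMSO); binding: mean log2 CR ≥ 1 and p ≤ 0.05 plus QC filters. Target is the cysteine site.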

| Target | log2 mean competition ratio |
| --- | --- |
| OSBPL1A C297 (UniProt Q9BXW6) | 0.0954 |
| OSBPL10 C511 (UniProt Q9BXB5) | -0.27 |
| ORC6 C82 (UniProt Q9Y5N6) | 0.0836 |
| OCIAD1 C38 | -0.491 |
| ODAD2 C125 | -0.251 |
| OSGEPL1 C216 (UniProt Q9H4B0) | -0.04 |
| NYNRIN C1031 | -0.236 |
| NUP93 C522 (UniProt Q8N1F7) | -0.0535 |
| NUMB C58 (UniProt P49757) | 0.0858 |
| OARD1 C24 (UniProt Q9Y530) | -0.00298 |
| ODAD2 C553 | 0.102 |
| NSUN2 C502 (UniProt Q08J23) | -0.153 |
| NRDC C674 (UniProt O43847) | 0.33 |
| OBSL1 C412 (UniProt O75147) | -0.219 |
| NUP160 C1166 (UniProt Q12769) | -0.0817 |
| NUDT18 C24 (UniProt Q6ZVK8) | -0.337 |
| OSBPL6 C803 (UniProt Q9BZF3) | -0.0729 |
| NT5C3B C210 (UniProt Q969T7) | -0.379 |
| OCRL C498 (UniProt Q01968) | -0.126 |

| Target | log2 mean competition ratio |
| --- | --- |
| NRDE2 C608 (UniProt Q9H7Z3) | -0.00749 |
| NOTCH3 C1747 (UniProt Q9UM47) | -0.183 |
| ORC4 C16 (UniProt O43929) | 0.187 |
| NPAT C1172 (UniProt Q14207) | -0.125 |
| NUDT9 C207 (UniProt Q9BW91) | -0.188 |
| NPRL3 C278 (UniProt Q12980) | 0.147 |
| OGFOD1 C435 (UniProt Q8N543) | -0.145 |
| NUP85 C265 (UniProt Q9BW27) | 0.122 |
| OGA C596 (UniProt O60502) | -0.0654 |
| NUP98 C1068 (UniProt P52948) | 0.0618 |
| NUP160 C1042 (UniProt Q12769) | -0.328 |
| NUP205 C1028 (UniProt Q92621) | 0.182 |
| ORC6 C35 (UniProt Q9Y5N6) | 0.184 |
| NUBP1 C307 (UniProt P53384) | -0.558 |
| NUP88 C391 (UniProt Q99567) | -0.024 |
| NUTF2 C114 (UniProt P61970) | 0.0166 |
| NUBP2 C72 (UniProt Q9Y5Y2) | 0.275 |
| OARD1 C122 (UniProt Q9Y530) | -0.122 |

Same assay, conditions: 200 µM; treatment time: 4 h; cell line lysate: HEK293T

| Target | log2 mean competition ratio |
| --- | --- |
| OSBPL1A C297 (UniProt Q9BXW6) | -0.273 |
| OSBPL10 C511 (UniProt Q9BXB5) | -0.227 |
| ORC6 C82 (UniProt Q9Y5N6) | -0.189 |
| OCIAD1 C38 | -0.281 |
| ODAD2 C125 | 0.115 |
| OSGEPL1 C216 (UniProt Q9H4B0) | 0.783 |
| NYNRIN C1031 | -0.167 |
| NUP93 C522 (UniProt Q8N1F7) | 0.211 |
| NUMB C58 (UniProt P49757) | 0.301 |
| OARD1 C24 (UniProt Q9Y530) | -0.157 |
| ODAD2 C553 | 0.339 |
| NSUN2 C502 (UniProt Q08J23) | 0.164 |
| NRDC C674 (UniProt O43847) | -0.167 |
| OBSL1 C412 (UniProt O75147) | 0.201 |
| NUP160 C1166 (UniProt Q12769) | 0.102 |
| NUDT18 C24 (UniProt Q6ZVK8) | -0.404 |
| OSBPL6 C803 (UniProt Q9BZF3) | 0.017 |
| NT5C3B C210 (UniProt Q969T7) | 0.236 |
| OCRL C498 (UniProt Q01968) | -0.0466 |

| Target | log2 mean competition ratio |
| --- | --- |
| NRDE2 C608 (UniProt Q9H7Z3) | 0.302 |
| NOTCH3 C1747 (UniProt Q9UM47) | 0.216 |
| ORC4 C16 (UniProt O43929) | 0.207 |
| NPAT C1172 (UniProt Q14207) | -0.0108 |
| NUDT9 C207 (UniProt Q9BW91) | -0.131 |
| NPRL3 C278 (UniProt Q12980) | -0.000321 |
| OGFOD1 C435 (UniProt Q8N543) | -0.274 |
| NUP85 C265 (UniProt Q9BW27) | -0.109 |
| OGA C596 (UniProt O60502) | 0.000193 |
| NUP98 C1068 (UniProt P52948) | 0.163 |
| NUP160 C1042 (UniProt Q12769) | 0.00859 |
| NUP205 C1028 (UniProt Q92621) | 0.324 |
| ORC6 C35 (UniProt Q9Y5N6) | 0.183 |
| NUBP1 C307 (UniProt P53384) | 0.463 |
| NUP88 C391 (UniProt Q99567) | -0.509 |
| NUTF2 C114 (UniProt P61970) | -0.27 |
| NUBP2 C72 (UniProt Q9Y5Y2) | -0.0768 |
| OARD1 C122 (UniProt Q9Y530) | 0.2 |
